Results reported in publication PMC7862700.
The other results are listed elsewhere or left out. Construct or isoform of the protein are uncertain.

The sequences below were run against T1, ETS1 (UniProt P14921) (assay: DAPPL (digital affinity profiling via proximity ligation, sequencing)). Settings: 10 mM Tris-HCl pH 7.5, 50 mM NaCl, 1 mM DTT, 4% glycerol, room temperature, 30 min; GST-TFs on glutathione beads, 16-mer random dsDNA library, 0.1% …; high values mean tight binding; double strand, one strand shown; scale: fold enrichment (6-mer frequency, TF over GST control).
T1 sequence: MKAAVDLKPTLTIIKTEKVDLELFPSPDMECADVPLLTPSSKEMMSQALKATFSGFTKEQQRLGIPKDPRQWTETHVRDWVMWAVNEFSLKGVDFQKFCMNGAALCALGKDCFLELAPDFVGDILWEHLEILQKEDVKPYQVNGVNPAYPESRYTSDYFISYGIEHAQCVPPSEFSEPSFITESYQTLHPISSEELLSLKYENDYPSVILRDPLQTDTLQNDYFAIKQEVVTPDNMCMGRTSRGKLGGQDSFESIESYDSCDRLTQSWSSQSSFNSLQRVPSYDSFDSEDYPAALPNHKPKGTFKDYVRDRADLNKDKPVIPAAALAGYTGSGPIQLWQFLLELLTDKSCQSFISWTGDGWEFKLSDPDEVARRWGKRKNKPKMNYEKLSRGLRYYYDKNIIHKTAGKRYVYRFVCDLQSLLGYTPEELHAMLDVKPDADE

Sequence	binding signal
ATATGC	1.15
CACTTA	1.29
CCCTTT	1.4
TGACTC	1.37
GTATTA	1.18
CCTGTT	1.79
AATGCA	1.3
AAAATC	1.27
GCACTT	1.74
CTGCGA	1.11
CCTCAT	1.35
GCTATA	1.23
CTGGAT	1.35
TAATCT	1.42
ACTTTG	1.29
ATTCCC	1.31
AAAAAG	1.39
CCCCGG	1.28
TGCTCT	1.39
ACCGAC	1.33

Sequence	binding signal
TAGCTA	1.38
AGCTTT	1.27
CCTATG	1.28
CAAATA	1.12
CGATTT	1.2
GTTCCA	1.1
GCGCTC	1.12
TTCCGT	1.91
CTCTTG	1.29
CTTGTG	1.44
TGTACT	1.26
AATCAT	1.12
CTTACG	1.18
TTAATG	1.18
TACTTA	1.18
ACAATA	1.19
ATTAAT	1.29
TAATAG	1.17
TTTCTT	1.36

Reformatted with bars between the fields: entries from further up
Sequence | binding signal
TACTTA | 1.18
ACAATA | 1.19
ATTAAT | 1.29
